Results deposited as PubChem BioAssay AID743121 (NCATS, 2013)
Shown is one part, drawn at random, of about 26,000 deposited reagents. 167 of all reagents (0.63%) were called active. 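Calls are per gene from RSA p-values that are not deposited; an individual active-marked siRNA can sensitise only weakly.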 Reagents against one gene are numbered here. No sequences are given here.

- Screen: 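Partners whose loss is lethal together with topoisomerase I blockade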 (primary screen)
- Cell system: MDA-MB-231 cells, a human breast cancer line
- Reagent: single siRNA against human genes, 20 nM siRNA (0.8 pmol per well)
- Time to read-out: 120 h (drug added 48 h after transfection, read 72 h later)
- Treatment: camptothecin 20 nM (about EC30) for 72 h; vehicle 0.1% DMSO in parallel plates
- Read-out: 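Cell viability by ATP luminescence (CellTiter-Glo) as % of non-targeting siRNA wells, and the log2 ratio of viability without drug over viability with camptothecin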
- Reading the numbers: log2 vehicle/camptothecin viability: higher = stronger sensitisation to camptothecin; viability with camptothecin and viability without drug: higher = more viable cells
- Active means: 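Active genes have an RSA gene-level p-value below 0.001, computed from the ratios of their separate siRNAs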

target gene	reagent no.	log2 vehicle/camptothecin viability	viability with camptothecin (% of control)	viability without drug (% of control)	Outcome
CYP4Z1 (cytochrome P450 family 4 subfamily Z member 1)	1	0.0604	77.2	80.5	inactive
CYP4Z1 (cytochrome P450 family 4 subfamily Z member 1)	2	0.206	58.6	67.6	inactive
CYP4Z1 (cytochrome P450 family 4 subfamily Z member 1)	3	-0.115	83.6	77.2	inactive
PLAU (plasminogen activator, urokinase)	1	-0.508	91	64	inactive
PLAU (plasminogen activator, urokinase)	2	-0.348	94.3	74	inactive
PLAU (plasminogen activator, urokinase)	3	0.385	56.9	74.4	inactive
PLAU (plasminogen activator, urokinase)	4	-0.436	70	51.7	inactive
GRIK5 (glutamate ionotropic receptor kainate type subunit 5)	1	0.0142	58.3	58.9	inactive
GRIK5 (glutamate ionotropic receptor kainate type subunit 5)	2	-0.337	48.8	38.6	inactive
GRIK5 (glutamate ionotropic receptor kainate type subunit 5)	3	0.00236	89.4	89.5	inactive
GRIK5 (glutamate ionotropic receptor kainate type subunit 5)	4	-0.417	100	75.1	inactive
FBXO15 (F-box protein 15)	1	-0.157	95	85.2	inactive
FBXO15 (F-box protein 15)	2	0.462	49.8	68.6	inactive
FBXO15 (F-box protein 15)	3	-0.471	80.6	58.1	inactive
FBXO15 (F-box protein 15)	4	-0.107	101	93.8	inactive
MCM2 (minichromosome maintenance complex component 2)	1	-0.683	35.8	22.3	inactive
MCM2 (minichromosome maintenance complex component 2)	2	-0.219	90.3	77.6	inactive
MCM2 (minichromosome maintenance complex component 2)	3	-0.279	78.8	65	inactive
MCM2 (minichromosome maintenance complex component 2)	4	-0.275	75.3	62.2	inactive
SCYL1 (SCY1 like pseudokinase 1)	1	-0.771	79.1	46.4	inactive
SCYL1 (SCY1 like pseudokinase 1)	2	0.0557	67.4	70.1	inactive
SCYL1 (SCY1 like pseudokinase 1)	3	-0.358	62.2	48.5	inactive
SCYL1 (SCY1 like pseudokinase 1)	4	0.18	55.3	62.6	inactive
DYRK1A	1	-0.358	115	90	inactive
DYRK1A	2	-0.126	112	102	inactive
DYRK1A	3	-0.0186	103	102	inactive
DYRK1A	4	-0.348	82.7	65	inactive
MAP2K5 (mitogen-activated protein kinase kinase 5)	1	-0.00461	75.3	75	inactive
MAP2K5 (mitogen-activated protein kinase kinase 5)	2	0.0692	38.7	40.6	inactive
MAP2K5 (mitogen-activated protein kinase kinase 5)	3	0.215	59.8	69.4	inactive
MAP2K5 (mitogen-activated protein kinase kinase 5)	4	-0.301	73.8	59.9	inactive
CD40LG (CD40 ligand)	1	-0.497	106	74.8	inactive
CD40LG (CD40 ligand)	2	-0.2	76.7	66.8	inactive
CD40LG (CD40 ligand)	3	-0.233	109	92.9	inactive
CD40LG (CD40 ligand)	4	0.18	60	68	inactive
PHF21A (PHD finger protein 21A)	1	-0.445	93.9	69	inactive
PHF21A (PHD finger protein 21A)	2	-0.199	113	98.4	inactive
PHF21A (PHD finger protein 21A)	3	-0.0878	36.8	34.6	inactive
PHF21A (PHD finger protein 21A)	4	-0.511	67.5	47.4	inactive

Continued, starting with the last 6 of the part before.
target gene	reagent no.	log2 vehicle/camptothecin viability	viability with camptothecin (% of control)	viability without drug (% of control)	Outcome
CD40LG (CD40 ligand)	3	-0.233	109	92.9	inactive
CD40LG (CD40 ligand)	4	0.18	60	68	inactive
PHF21A (PHD finger protein 21A)	1	-0.445	93.9	69	inactive
PHF21A (PHD finger protein 21A)	2	-0.199	113	98.4	inactive
PHF21A (PHD finger protein 21A)	3	-0.0878	36.8	34.6	inactive
PHF21A (PHD finger protein 21A)	4	-0.511	67.5	47.4	inactive
MYH9 (myosin heavy chain 9)	1	-0.313	107	86	inactive
MYH9 (myosin heavy chain 9)	2	0.14	26.3	28.9	inactive
MYH9 (myosin heavy chain 9)	3	-0.141	51.2	46.4	inactive
FRRS1 (ferric chelate reductase 1)	1	-0.234	83.5	71	inactive
FRRS1 (ferric chelate reductase 1)	2	-0.465	41.7	30.2	inactive
FRRS1 (ferric chelate reductase 1)	3	-0.0448	60.9	59	inactive
GRM3 (glutamate metabotropic receptor 3)	1	-0.692	67.4	41.7	inactive
GRM3 (glutamate metabotropic receptor 3)	2	-0.241	84.5	71.5	inactive
GRM3 (glutamate metabotropic receptor 3)	3	0.0477	78.9	81.5	inactive
GRM3 (glutamate metabotropic receptor 3)	4	-0.0859	29.3	27.6	inactive
P2RY2 (purinergic receptor P2Y2)	1	-0.231	103	87.8	inactive
P2RY2 (purinergic receptor P2Y2)	2	-0.359	75.1	58.5	inactive
P2RY2 (purinergic receptor P2Y2)	3	0.579	14	20.9	inactive
P2RY2 (purinergic receptor P2Y2)	4	-0.177	35.5	31.4	inactive
IL17RA (interleukin 17 receptor A)	1	-0.0142	5.09	5.04	inactive
IL17RA (interleukin 17 receptor A)	2	0.079	74.9	79.2	inactive
IL17RA (interleukin 17 receptor A)	3	-0.516	41.2	28.8	inactive
IL17RA (interleukin 17 receptor A)	4	0.43	68.6	92.4	inactive
TRMT2A (tRNA methyltransferase 2A)	1	-0.0411	90.8	88.2	inactive
TRMT2A (tRNA methyltransferase 2A)	2	-0.166	85.2	76	inactive
TRMT2A (tRNA methyltransferase 2A)	3	-0.133	84.3	76.9	inactive
TRMT2A (tRNA methyltransferase 2A)	4	-0.166	97.8	87.2	inactive
DKC1 (dyskerin pseudouridine synthase 1)	1	-0.268	92.1	76.5	inactive
DKC1 (dyskerin pseudouridine synthase 1)	2	-0.785	95.4	55.4	inactive
DKC1 (dyskerin pseudouridine synthase 1)	3	-0.395	99.6	75.8	inactive
DKC1 (dyskerin pseudouridine synthase 1)	4	-0.341	83.3	65.8	inactive
SELE (selectin E)	1	-0.206	68.7	59.6	inactive
SELE (selectin E)	2	-0.604	64	42.1	inactive
SELE (selectin E)	3	0.0496	48.6	50.3	inactive
SELE (selectin E)	4	0.0489	101	105	inactive
